Literature values as cited in patent US20110275602A1, “PHARMACEUTICAL ASSOCIATION, COMPOSITIONS FOR TOPICAL USE, FORMS OF DOSAGE AND METHOD OF TREATMENT OF ACUTE OR CHRONIC OTITIS IN PET ANIMALS” (priority 2007, published 2011).
At least one structure is not confirmed: it was looked up by name or label, or the drawing left a doubt.

Test system: otorrhea
Conditions: literature

**Q.** For `CC1COc2c(N3CCN(C)CC3)c(F)cc3c(=O)c(C(=O)O)cn1c23` (centres unmarked) [ofloxacin], which clinical cure is on record?
**A.** 78%

**Q.** And the “period to end otorrhea” value?
**A.** six
